Measured values from article PMC7819943, “Rice protein-binding microarrays: a tool to detect cis-acting elements near promoter regions in rice”.
The other results are listed elsewhere or left out.

Biological target: T1, OsSMF1 (Oryza sativa, UniProt Q6ZLB0 1-436)
T1 sequence: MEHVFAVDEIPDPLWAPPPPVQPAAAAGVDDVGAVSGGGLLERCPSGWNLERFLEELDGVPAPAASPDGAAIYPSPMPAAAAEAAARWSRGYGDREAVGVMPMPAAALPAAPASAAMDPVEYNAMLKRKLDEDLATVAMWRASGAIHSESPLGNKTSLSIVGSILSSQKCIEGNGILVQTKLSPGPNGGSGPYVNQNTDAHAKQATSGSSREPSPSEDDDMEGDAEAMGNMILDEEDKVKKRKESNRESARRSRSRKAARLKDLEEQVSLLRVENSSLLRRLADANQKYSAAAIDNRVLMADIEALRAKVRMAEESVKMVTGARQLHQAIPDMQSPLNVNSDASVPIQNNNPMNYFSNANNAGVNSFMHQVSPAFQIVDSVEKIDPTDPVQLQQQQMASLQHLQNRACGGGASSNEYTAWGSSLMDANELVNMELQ
Assay: protein-binding microarray (RPBM); PBS, 2% BSA, 51.3 ng/ul salmon testes DNA, 50 uM zinc acetate, 200 nM TF, 25 C, 1 h; high values mean tight binding
Conditions: protein: recombinant; tags: N-terminal polyhistidine and DsRed monomer fusion (pET32a); chain copies: 2; label: CyDye5-dUTP incorporated in the synthesized complementary strand; 3' TTTTT single-stranded linker to array surface; dsDNA, one strand shown
How it was run: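 In PBS with 2% BSA, salmon testes DNA and 50 µM zinc acetate, 200 nM protein was incubated on a custom Agilent array at 25 °C for 1 h and then washed off. The array had been made double-stranded by primer extension with Cy5-dUTP and blocked with 2% BSA. The proteins were transcription factors fused N-terminally to polyhistidine and DsRed, expressed in E. coli BL21-CodonPlus and purified on Ni–NTA. The binding signal is per-feature fluorescence intensity (arbitrary units) from an Axon 4000B scanner.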

**Q.** For “AACCACCAACTTACTACTAGTACGCTGATGTATTGATGTACGGAGTCACCTAGTGCAG”, which binding signal is on record?
**A.** The binding signal was 4660 fluorescence intensity (a.u.).

**Q.** For “TGGTATTCTTACTTGTGAAGCTGGTTGTGTGTTGGAGAATCGGAGTCACCTAGTGCAG”, which binding signal is on record?
**A.** Its binding signal is 3140 fluorescence intensity (a.u.).

**Q.** Which binding signal does the source give for “TAAGTTAGATGACAGACATGTAATCTCGGCGTGGAAATCTCGGAGTCACCTAGTGCAG” here?
**A.** The binding signal was 3150 fluorescence intensity (a.u.).

**Q.** For “GAACTATTTAATTGACTCTGCATGCCAGGTGTTGGGCCTCCGGAGTCACCTAGTGCAG”, which binding signal is on record?
**A.** The binding signal was 3190 fluorescence intensity (a.u.).

**Q.** “TGATGCAATTCTGTTCCTGTCATTGTCACTCCCCTGCAAACGGAGTCACCTAGTGCAG” was tested. Which binding signal did it give?
**A.** The binding signal was 4720 fluorescence intensity (a.u.).

**Q.** How did the binding signal turn out when “CGTTTGAATTTTCTAACGAGCCGAGCTGGCATTTTAGCTCCGGAGTCACCTAGTGCAG” was run?
**A.** Its binding signal is 5800 fluorescence intensity (a.u.).

**Q.** Which binding signal does the source give for “ATAATGTGACGCTGCCATACACCGCCTCCCTTCGCTTTTGCGGAGTCACCTAGTGCAG” here?
**A.** Its binding signal is 4250 fluorescence intensity (a.u.).

**Q.** “ACCAACCAACCAACCAACCAACCAAGCCTCCCAACTCCATCGGAGTCACCTAGTGCAG” was tested. Which binding signal did it give?
**A.** Its binding signal is 3810 fluorescence intensity (a.u.).

**Q.** “CGAACTTCGAACGGCGTGAAACCATACGTCATACCTATTTCGGAGTCACCTAGTGCAG” was tested. Which binding signal did it give?
**A.** The binding signal was 6370 fluorescence intensity (a.u.).

**Q.** “ACACAACTAATCCACACAAGGAGCATGACTGTTACCGACCCGGAGTCACCTAGTGCAG” was tested. Which binding signal did it give?
**A.** Its binding signal is 3640 fluorescence intensity (a.u.).

**Q.** “ACGACATCAACTTCGCGTCGCGGCCGTGGCCGCCGACTGTCGGAGTCACCTAGTGCAG” was tested. Which binding signal did it give?
**A.** The binding signal was 3400 fluorescence intensity (a.u.).

**Q.** With “CATATACTGCATACGTCAAGTCAGAGGAACGTGGTGGCTGCGGAGTCACCTAGTGCAG” as the sequence, how does the binding signal read?
**A.** The binding signal was 5590 fluorescence intensity (a.u.).

**Q.** “ATAGAATCTTGCTATACGTATGACCGAGCCATTCGACTCACGGAGTCACCTAGTGCAG” was tested. Which binding signal did it give?
**A.** Its binding signal is 3880 fluorescence intensity (a.u.).

**Q.** How did the binding signal turn out when “AAGAAGGAAATGATGCGCGCGCACAACGTGGCCACCTCCTCGGAGTCACCTAGTGCAG” was run?
**A.** Its binding signal is 4910 fluorescence intensity (a.u.).

**Q.** Which binding signal does the source give for “GGTTGCGAAGGAAAAGGGATGGCGATTGATTTGCGCGTGGCGGAGTCACCTAGTGCAG” here?
**A.** The binding signal was 3150 fluorescence intensity (a.u.).

**Q.** Which binding signal does the source give for “CCGAAAGTACTTATAAAGAGACATGTTCCTCAAACAAGGCCGGAGTCACCTAGTGCAG” here?
**A.** Its binding signal is 26000 fluorescence intensity (a.u.).

**Q.** Which binding signal does the source give for “CGTCTCCAAGCTCCGGACCCAGCTGGGCGTCATCCACCCGCGGAGTCACCTAGTGCAG” here?
**A.** The binding signal was 3330 fluorescence intensity (a.u.).

**Q.** “AATATCACACTGCCCGCGCCCCTGTTCGCAGCGCATGTGACGGAGTCACCTAGTGCAG” was tested. Which binding signal did it give?
**A.** The binding signal was 3160 fluorescence intensity (a.u.).

**Q.** With “CGGTGTCGTCGTTCAGACGCGACACGTATAGTGAACCCTCCGGAGTCACCTAGTGCAG” as the sequence, how does the binding signal read?
**A.** Its binding signal is 3840 fluorescence intensity (a.u.).

**Q.** For “GGAATCCAGTGCAACTGTGGCAGTTGGATCACCCCAGCCTCGGAGTCACCTAGTGCAG”, which binding signal is on record?
**A.** Its binding signal is 38900 fluorescence intensity (a.u.).

**Q.** “AAGCCCTAGTCCCCGCCACGCCACCGTCCGCCGGCAACGCCGGAGTCACCTAGTGCAG” was tested. Which binding signal did it give?
**A.** Its binding signal is 7780 fluorescence intensity (a.u.).

**Q.** With “GCAATTTCTAATTGTATTATATGACAGTTTTAGTGGAAATCGGAGTCACCTAGTGCAG” as the sequence, how does the binding signal read?
**A.** The binding signal was 28800 fluorescence intensity (a.u.).

**Q.** “GCCGATCGATCAATCGCCGCCGCCGTCTCCTCGTGTAACCCGGAGTCACCTAGTGCAG” was tested. Which binding signal did it give?
**A.** The binding signal was 3430 fluorescence intensity (a.u.).

**Q.** With “ATATAATGTGTGTGCATCTACTTTGTGTTGCTGACTAACGCGGAGTCACCTAGTGCAG” as the sequence, how does the binding signal read?
**A.** Its binding signal is 4990 fluorescence intensity (a.u.).

**Q.** With “ATATGTATGTGTTGTAAACTTTCATTGGATTTGTGAAGTTCGGAGTCACCTAGTGCAG” as the sequence, how does the binding signal read?
**A.** The binding signal was 3200 fluorescence intensity (a.u.).

**Q.** Which binding signal does the source give for “CTGCACCTGCTTGATCTCTTCTATGTCACTGTTCCTCTGACGGAGTCACCTAGTGCAG” here?
**A.** Its binding signal is 3220 fluorescence intensity (a.u.).

**Q.** Which binding signal does the source give for “ACTCGCCCCTTGCGGCATCGCCTCCTCCCCGCCACACAAACGGAGTCACCTAGTGCAG” here?
**A.** The binding signal was 3720 fluorescence intensity (a.u.).

**Q.** Which binding signal does the source give for “CAAATGTGTGTCTATATATCCGATGTGACAACCAAACCTACGGAGTCACCTAGTGCAG” here?
**A.** Its binding signal is 3320 fluorescence intensity (a.u.).

**Q.** With “GCCCAATCCACGTTGCCGTCGAGGTCGATGCCGCCGCTCGCGGAGTCACCTAGTGCAG” as the sequence, how does the binding signal read?
**A.** The binding signal was 4360 fluorescence intensity (a.u.).

**Q.** “AGAAAGCACCACGACGACAAACGGCCCCAGTGAGCGAGTGCGGAGTCACCTAGTGCAG” was tested. Which binding signal did it give?
**A.** Its binding signal is 3520 fluorescence intensity (a.u.).

**Q.** How did the binding signal turn out when “CCGCTTCGCTCCGTTGGAAGCTAGACTTTATACGTGTGCACGGAGTCACCTAGTGCAG” was run?
**A.** The binding signal was 3340 fluorescence intensity (a.u.).

**Q.** For “GCATGATGTATGATGAGCTCTACACGAAAGCCAAAGTGATCGGAGTCACCTAGTGCAG”, which binding signal is on record?
**A.** Its binding signal is 3170 fluorescence intensity (a.u.).

**Q.** How did the binding signal turn out when “GCATCTCCTTACTTGACGTAATGTCAGAGCGCTAGCAAACCGGAGTCACCTAGTGCAG” was run?
**A.** Its binding signal is 4980 fluorescence intensity (a.u.).

**Q.** How did the binding signal turn out when “TTTAATTATATTATCACTGACATGTGGGTCCCACTATATGCGGAGTCACCTAGTGCAG” was run?
**A.** Its binding signal is 4330 fluorescence intensity (a.u.).

**Q.** For “CTCTTAATCGCAGCCTTCACTTTCGTCGTGACGAGTCACGCGGAGTCACCTAGTGCAG”, which binding signal is on record?
**A.** Its binding signal is 4540 fluorescence intensity (a.u.).

**Q.** “TAGATTACATAAAGATAGTGACTGTTGCAATGTTGTCTGTCGGAGTCACCTAGTGCAG” was tested. Which binding signal did it give?
**A.** The binding signal was 4230 fluorescence intensity (a.u.).

**Q.** “TCGGGCCCATAGGAGGGTCGTGGCGTGGCGTGCCCAGGTGCGGAGTCACCTAGTGCAG” was tested. Which binding signal did it give?
**A.** The binding signal was 4100 fluorescence intensity (a.u.).

**Q.** With “GCACATCGATCGAGTCAGCTGATCACTCACACTGCGGACTCGGAGTCACCTAGTGCAG” as the sequence, how does the binding signal read?
**A.** Its binding signal is 4170 fluorescence intensity (a.u.).

**Q.** Which binding signal does the source give for “ATTCGTTTGGTGTGGTATTATCCGTATGTGGAAGTTGTTACGGAGTCACCTAGTGCAG” here?
**A.** Its binding signal is 3620 fluorescence intensity (a.u.).

**Q.** For “TTAATCACACGTTTATGAATCACTTAATCATATTCATCATCGGAGTCACCTAGTGCAG”, which binding signal is on record?
**A.** The binding signal was 4020 fluorescence intensity (a.u.).

**Q.** Which binding signal does the source give for “GCAGATCTAGCTACACTAGCCGCCCTATTTCAGGTCTCCACGGAGTCACCTAGTGCAG” here?
**A.** The binding signal was 3480 fluorescence intensity (a.u.).

**Q.** Which binding signal does the source give for “TACTATTCTGTGGATGAGTCAGATGAAGATGAGGTGCCTTCGGAGTCACCTAGTGCAG” here?
**A.** Its binding signal is 5110 fluorescence intensity (a.u.).
